Data reported in PubChem BioAssay AID1508600 (Functional Genomics Laboratory (NCATS/FGL), 2020).
Out of some 53,000 sequences screened, about 3,700 (7%) were called active.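 The calls were made as follows: active = gene knockdowns whose robust z-score for IL-1 alpha signal is at least 2 or at most -2, so actives lie on both sides; inactive = the rest.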 This is one part of the list.

assay: Components of the Cytosolic LPS Sensing Pathway: Gene Identification via Genome-wide siRNA Screen; details: RAW264.7 macrophages, IL-1a HTRF, actives lie on both sides, screened at 100 nM (by protocol), cells primed 5 h with Pam3CSK4 first;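 also: robust z of the log signal after scaling to non-targeting control siRNA wells of the plate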
Method in brief: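 Cells (RAW264.7, 1×10^4 per well) were transfected with siRNA at 100 nM and cultured 48h at 37 degrees C. Pam3CSK4 was added for 5 hours; LipidA transfection followed for 24 hour. IL-1a was then measured by HTRF.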

Sequence	z-score
GGCUUCUUCUAUAACCCAATT against H1f1	inactive: -0.852
GGUCACUGUUAGUUAUUAATT against Tcerg1l	inactive: 0.954
GCAAAAAGCAGACUAUGAATT against Vezf1	inactive: -0.797
GCACUACCGUGAUGAGAUGTT against Dnaic1	inactive: 0.00578
GUCUCUUGGUAAAUGGCAATT against Hcrt	inactive: 1.42
GCCAAAAAAGCUGUCAGUUTT against Nkx2-3	inactive: -1.11
GGAGACCUAUGAGGUAUUUTT against Ckmt1	inactive: -0.846
GGUCACAGAAUCGGUUUCATT against Cuta	inactive: 1.02
GCUAUGCUACUAAGCAUUCTT against Bmp8b	inactive: 0.631
GGUUUACAAUGAGAUAGUUTT against Lipf	inactive: -0.85
CGUGGGUACAAUCAGAUAATT against Mapk1ip1l	inactive: 0.957
GGGAUAGUUACAUUGAAGUTT against Acot10	inactive: -0.932
CCUGUUUCACAGCUUCUAUTT against Cptp	inactive: -1.6
CCUCUCCCUAAUUAUCUUUTT against Ripply3	inactive: 1.19
GAGUCUUACAUCAAGAAGATT against 9230106D20Rik	inactive: 0.538
GGAGGUGAAAGGCAAAACUTT against Poldip2	inactive: -0.122
GGAUGCUGUCCAACUGGAUTT against Plxnb2	inactive: 0.17
CGAGCUUUGCACUUACUAUTT against Vtn	inactive: -0.709
CGGCAUGUCCUUCAUCGCUTT against Proser2	active: -2.89
CGGCCUCUCGAAUCGAUAUTT against Usp19	inactive: 1.82
GGCUCAAUAAUGUUUUCAATT against Smpd3	active: 3.18
GGACUCAGGCCAAGAAAGATT against Rrs1	inactive: 0.341

Sequence	z-score
GGUGAAAUAUGCAGUAAAATT against Adam18	inactive: -0.125
GCUAUUUGGUACCCUUUGATT against Olfr600	inactive: -0.00896
GGAAUGUGGGAAUAUUUACTT against Zfp59	inactive: 0.777
GCCUUUACAACAGAACCUUTT against Appl2	inactive: 0.356
GGAGAAGUAAUGACAAAUUTT against Foxp4	inactive: -1.47
GCCAGAUCUUUAUAUCCCGTT against Gdi2	inactive: -0.094
GCACUGGUGGACAGAUUCUTT against Col3a1	inactive: 0.3
UGGCAAAAAGGUGAUAACUTT against Hbb-b2	inactive: 0.86
CGGAACCAUAGGGAAUCAGTT against Cmc2	active: 2.04
GGAUCACUUUAUUUGCUAGTT against Btg1	inactive: 0.402
GGUUUGUGCUCUUUAUUUGTT against Tcaf2	inactive: 0.692
CCGUUCUUCAUAUGAGCUCTT against Olfr164	inactive: 1.17
GGAAGAAGAAGGAGCUAGATT against Slu7	active: -2.2
GGAUUUGCCCAAAAUAAAATT against Nap1l5	inactive: -0.669
CCGACAAAAGGUAUUCUGGTT against Aatf	inactive: -0.0972
GGACAGUGAUGAAGAAAAUTT against Srek1ip1	inactive: -1.36
CCUUUAAAGUAAGCAUGUGTT against Slc27a4	inactive: 0.112
GGUAACUGAGAAAACCAGATT against Adam29	inactive: -0.105
GGAAGGAUAUUGGUUACCATT against Zmynd11	active: -2.28
CCGGAGAUUUGCUCUUAGUTT against Pcdhb3	inactive: -0.668
GGUGUCAGCGAAAAGCAGUTT against Ring1	active: -2.2
CGGCGAGUUCACAUUUCUGTT against Tmed1	inactive: -0.278

5 records drawn at random from the list so far, as already listed:
Sequence	z-score
CCGACAAAAGGUAUUCUGGTT against Aatf	inactive: -0.0972
CCGGAGAUUUGCUCUUAGUTT against Pcdhb3	inactive: -0.668
GGAGAAGUAAUGACAAAUUTT against Foxp4	inactive: -1.47
GGAAUGUGGGAAUAUUUACTT against Zfp59	inactive: 0.777
GCACUGGUGGACAGAUUCUTT against Col3a1	inactive: 0.3

(cont.)

Sequence	z-score
GGUAUGACCCAGAAGAAGGTT against Pip5k1c	inactive: -0.664
CCAGUUAAGGCCAUUGUAATT against Jdp2	inactive: -0.774
GCCGUUCCUAUGUCUAUGCTT against Serpina1b	inactive: 0.0725
GGUUAUAGCAAAGCUGAAATT against Ctu1	inactive: -0.623
GGGAUAAAGAGCAAAGAAUTT against Trdv2-2	inactive: -0.466
GGAGCUGACCUAUCUCAAGTT against Krt25	inactive: 0.322
CCCUCAUGGUACCUUGGCATT against Slc7a4	inactive: -1.14
GGUUCAAACAGAGACUCCATT against Slx4ip	inactive: -1.89
GCUAUCUCUCUUUUCAACATT against 4732465J04Rik	inactive: -1.47
GCUAUGAGUUUGGAAAAAGTT against Rsph1	inactive: -0.85
GCAUGUUAAGGAGACUCAGTT against Golph3	inactive: 0.748
GCAGUAAGCUUUUGCUAAATT against Zfp334	inactive: 1.26
GGUCUUGACCACACGAUGUTT against Tmem82	inactive: 0.617
GGCAAAAGAUUACAACAGATT against H1f7	inactive: -1.81
GGAGACCUUAAAAGAACAUTT against Ccdc134	inactive: 0.775
GACAUUUGUAUGCAGUCAUTT against Vmn1r193	active: -2.65
GGACAAAUGGGUAUUAUCUTT against Phxr4	inactive: -1.01
GCCACUUACCCUUUCAGGCTT against Nfe2	inactive: 0.772
CCGACUUUGCCAGGAUUUCTT against Fbxl7	inactive: 0.924
GCAGGUUAGACCAUGGCUATT against Diras2	inactive: -0.667
GGUUUCAAGAAAGAUAUGATT against Cntnap5b	inactive: -0.891
GGUUCUCUAACAGAACUUUTT against Zc3h6	inactive: 0.768

Rewritten in markdown: part of the list above.

| Sequence | z-score |
| --- | --- |
| GGUAUGACCCAGAAGAAGGTT against Pip5k1c | inactive: -0.664 |
| CCAGUUAAGGCCAUUGUAATT against Jdp2 | inactive: -0.774 |
| GCCGUUCCUAUGUCUAUGCTT against Serpina1b | inactive: 0.0725 |

Following part

Sequence	z-score
GGAACCUUACUCAUGUCCCTT against Tlr6	inactive: -0.773
GGACGAAGACACCAAAGUGTT against Camk2a	inactive: -1.31
GGAUCUGAAACAAAAACACTT against Slc8a3	inactive: -1.3
GGCGACUCCAUCUAAACAATT against Slitrk5	inactive: -0.709
CCAAAUCGCUUCACAUAAUTT against Atp6v1g2	inactive: -1.1
GGCCCUUCAAGAAUCUCUGTT against Rnf212	inactive: -0.468
GCUUGUGCCGGAUAAAGGUTT against Gng3	inactive: -0.748
CCCAAUGAUCCUAACCAUUTT against Zfp459	inactive: -1.08
CCAUUCCGGUUACUUUCGATT against Hspb1	inactive: 1.37
GGACACAAAGGAAUCUCUUTT against Olfr374	inactive: -0.141
GUACCUCUUCUCUAUCACUTT against Pla2g2e	inactive: 1.77
CCUUGCUUAUUAGUCAAGUTT against Tti1	inactive: -0.123
GGAAGAUUUGUUCUAUACUTT against Epgn	inactive: 0.593
GCAUGGAAAAAGGCUUUGATT against Olfr91	inactive: -0.0717
GGUUUUCAUGGUUAUCUGATT against Nrgn	inactive: -0.427
GGUGGAUAACGGCAAUAUUTT against Rfesd	inactive: -1.08
GGCAGAAUUGGCACAGAAATT against Zrsr2	inactive: 0.201
CGAAAAGAAGUGUUUCCUGTT against Lamb2	inactive: 2
CGUGGUUGAACUUUGUCCGTT against C1qtnf12	inactive: -0.569
CCGUCUAUACAUCUUUCCATT against Dab2	inactive: 0.00714
CAAGAUAACCAGGUUAAUCTT against Adam6b	inactive: 0.297
GGAGAAAUGAAAAAACAGUTT against Tmed4	inactive: 1.05

Sequence	z-score
CGAGAUAGACCGAAAACUGTT against Rad54l	inactive: 0.304
GCACUGUAACAGCGAGUUATT against Tdgf1	inactive: -0.218
GCUAAUCAACAUCUACUUGTT against Nmt2	inactive: 1.14
GGUUACCAGUAUGUCUUAGTT against Cryba2	inactive: -0.117
GUACAAAGCCUUUAAAGAUTT against Ang3	inactive: -0.725
GGAAACCGUUCUCAUUAAATT against Mrpl30	inactive: 0.599
GCUGUAAGCUACCGUCUGUTT against Panx2	inactive: 1.54
GUGAUGAGAGGCCUUUCACTT against Vmn1r-ps8	inactive: -0.668
GGAUGUUACCUUGGUGGGUTT against Olfr1323	inactive: 0.269
GGGAUCCUUAAUAUUUUGATT against Dazap2	inactive: 1.66
GGUUCUACUCUAUCAAGGATT against Nlrp3	inactive: 0.449
GGUUUCUUUCUCUGAGUUUTT against Man2a1	inactive: 1.62
GGAAACCUCAUACAAAACATT against Tex14	inactive: -0.396
GCCUACAUAACCUUAAUAUTT against Slc4a10	active: 2.2
GGAGAAAAUAACUUGUUUCTT against Ssr3	inactive: -0.189
GGCAACAAGAGCUUUACUCTT against Gabrp	inactive: -0.0644
GGAUCAUCCAAGUGUUCCGTT against Olfr555	inactive: 1.51
GCAAGUCUCUGCGCUAUUATT against 4931417E11Rik	inactive: 0.813
GGAUGCUGUGAGAAGAACUTT against Olfr1416	inactive: 0.951
